In paper PMC11649915 one finds binding data, which are given here for 1 substance.

Protein sequences, listed by entry. Tags and fused reporters are not part of them. Lines headed by an entry give the natural chain unless they say otherwise; changes in a name come on top.
UniProt Q9HC16, whole entry: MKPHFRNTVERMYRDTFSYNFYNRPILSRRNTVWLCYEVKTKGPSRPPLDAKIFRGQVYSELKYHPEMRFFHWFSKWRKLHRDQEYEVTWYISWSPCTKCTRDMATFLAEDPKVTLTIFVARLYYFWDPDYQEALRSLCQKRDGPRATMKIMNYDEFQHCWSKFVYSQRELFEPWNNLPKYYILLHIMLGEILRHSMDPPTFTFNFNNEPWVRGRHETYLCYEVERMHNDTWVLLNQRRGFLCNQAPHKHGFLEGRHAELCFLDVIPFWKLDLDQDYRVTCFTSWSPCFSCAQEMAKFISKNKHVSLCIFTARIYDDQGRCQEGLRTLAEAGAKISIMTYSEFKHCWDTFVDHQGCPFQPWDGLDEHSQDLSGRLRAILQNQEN

No constants are given. Whether binding was seen depends on the method and setting. Binding seen in cells or lysates may run through a third protein.

Assay [1] concerns the target GFP-tagged SARS-CoV-2 membrane protein (SARS-CoV-2) (UniProt P0DTC5). Put plainly: co-IP.
The target in assay [2] is GFP-tagged SARS-CoV-2 envelope protein (SARS-CoV-2) (UniProt P0DTC4). Put plainly: co-IP.

Take “APOBEC3G, transfected, tag not shown (Appendix Fig. S2D and S9D) (from UniProt Q9HC16 1-384) (enzyme)”: the binding entry in assay [1] and in assay [2] was “no binding” in each case.
